Laboratory results published in PMC12390755.
No constants are given. Whether binding was seen depends on the method and setting. In cells and extracts the contact can be indirect. Here binding means that the protein was enriched with, or labelled near, the bait; the list need not be complete. For part of these data: No binding means not detected with the bait. For part of these data: Sequences can lack the tags named with a protein.

T1: Rmp64-3×Flag (UniProt Q8R2U2)
T1 sequence: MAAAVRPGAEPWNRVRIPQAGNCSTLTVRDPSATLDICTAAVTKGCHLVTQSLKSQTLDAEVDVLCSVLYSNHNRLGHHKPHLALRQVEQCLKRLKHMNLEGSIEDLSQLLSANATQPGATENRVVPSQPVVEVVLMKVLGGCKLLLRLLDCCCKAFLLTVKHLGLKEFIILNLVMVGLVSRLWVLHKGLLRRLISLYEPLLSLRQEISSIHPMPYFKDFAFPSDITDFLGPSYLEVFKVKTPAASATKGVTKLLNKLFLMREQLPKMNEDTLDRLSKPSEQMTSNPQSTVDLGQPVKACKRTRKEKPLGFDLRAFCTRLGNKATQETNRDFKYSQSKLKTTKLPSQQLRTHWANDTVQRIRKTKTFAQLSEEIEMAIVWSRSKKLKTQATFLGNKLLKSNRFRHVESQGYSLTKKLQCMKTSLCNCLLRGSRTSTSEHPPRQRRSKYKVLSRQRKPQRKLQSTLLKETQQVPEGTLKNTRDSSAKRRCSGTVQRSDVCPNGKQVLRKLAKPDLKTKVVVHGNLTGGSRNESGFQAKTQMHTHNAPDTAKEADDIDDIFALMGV

T2: Flag-HA-Rpp25 (UniProt Q91WE3)
T2 sequence: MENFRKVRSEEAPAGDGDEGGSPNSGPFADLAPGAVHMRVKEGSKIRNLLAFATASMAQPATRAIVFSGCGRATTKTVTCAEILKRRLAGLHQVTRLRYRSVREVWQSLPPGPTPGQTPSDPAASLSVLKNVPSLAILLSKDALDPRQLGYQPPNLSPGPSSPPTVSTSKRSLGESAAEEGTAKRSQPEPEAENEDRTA

T3: Rpp21-3×Flag (UniProt Q8R040)
T3 sequence: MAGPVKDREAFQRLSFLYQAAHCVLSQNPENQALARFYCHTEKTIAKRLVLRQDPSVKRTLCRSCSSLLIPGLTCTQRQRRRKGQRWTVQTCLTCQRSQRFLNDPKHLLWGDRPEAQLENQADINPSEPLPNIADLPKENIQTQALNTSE

T4: Flag-HA-RPP25 (UniProt Q9BUL9)
T4 sequence: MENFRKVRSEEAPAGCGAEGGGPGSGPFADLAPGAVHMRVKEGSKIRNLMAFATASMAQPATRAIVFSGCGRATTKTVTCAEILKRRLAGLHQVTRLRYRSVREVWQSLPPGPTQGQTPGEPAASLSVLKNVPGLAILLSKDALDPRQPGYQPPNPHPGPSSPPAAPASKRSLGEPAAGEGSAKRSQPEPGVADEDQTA


Assays:
Rmp64-3×Flag = target: T1, Rmp64-3×Flag; experiment: affinity purification with mass spectrometry; single anti-Flag M2 purification of 3×Flag-tagged Rmp64, Rmp24 or Rpp21 from E14 mESC lysate; lysis in 300 mM KCl, 0.1% IGEPAL, washes at 300 and 150 mM KCl, Flag peptide elution; against mock control
Rmp24-3×Flag = experiment: as above
Flag-HA-Rpp25 [1] = target: T2, Flag-HA-Rpp25; experiment: affinity purification with mass spectrometry; tandem purification (anti-Flag M2 gel, Flag peptide elution, then anti-HA magnetic beads, HA peptide elution) of Flag-HA-Rpp25 from E14 mESC lysate; lysis in 300 mM KCl, 0.1% IGEPAL, washes at 300 and 150 mM KCl; against mock control
Rpp21-3×Flag = target: T3, Rpp21-3×Flag; experiment: affinity purification with mass spectrometry; single anti-Flag M2 purification of 3×Flag-tagged Rmp64, Rmp24 or Rpp21 from E14 mESC lysate; lysis in 300 mM KCl, 0.1% IGEPAL, washes at 300 and 150 mM KCl, Flag peptide elution; against mock control
Flag-HA-RPP25 [2] = target: T4, Flag-HA-RPP25; experiment: affinity purification with mass spectrometry; tandem purification (anti-Flag M2 gel, Flag peptide elution, then anti-HA magnetic beads, HA peptide elution) of Flag-HA-RPP25 from HEK293T lysate; lysis in 300 mM KCl, 0.1% IGEPAL, washes at 300 and 150 mM KCl; against mock control

Binder	binding (Rmp64-3×Flag)	binding (Rmp24-3×Flag)	binding (Flag-HA-Rpp25 [1])	binding (Rpp21-3×Flag)	binding (Flag-HA-RPP25 [2])
Rmp64 (protein, UniProt Q8R2U2 1-564) MAAAVRPGAEPWNRVRIPQAGNCSTLTVRDPSATLDICTAAVTKGCHLVTQSLKSQTLDAEVDVLCSVLYSNHNRLGHHKPHLALRQVEQCLKRLKHMNLEGSIEDLSQLLSANATQPGATENRVVPSQPVVEVVLMKVLGGCKLLLRLLDCCCKAFLLTVKHLGLKEFIILNLVMVGLVSRLWVLHKGLLRRLISLYEPLLSLRQEISSIHPMPYFKDFAFPSDITDFLGPSYLEVFKVKTPAASATKGVTKLLNKLFLMREQLPKMNEDTLDRLSKPSEQMTSNPQSTVDLGQPVKACKRTRKEKPLGFDLRAFCTRLGNKATQETNRDFKYSQSKLKTTKLPSQQLRTHWANDTVQRIRKTKTFAQLSEEIEMAIVWSRSKKLKTQATFLGNKLLKSNRFRHVESQGYSLTKKLQCMKTSLCNCLLRGSRTSTSEHPPRQRRSKYKVLSRQRKPQRKLQSTLLKETQQVPEGTLKNTRDSSAKRRCSGTVQRSDVCPNGKQVLRKLAKPDLKTKVVVHGNLTGGSRNESGFQAKTQMHTHNAPDTAKEADDIDDIFALMGV	–	binds	binds	no binding	–
RMP64 (protein, UniProt Q6NW34 1-567) MMAAVPPGLEPWNRVRIPKAGNRSAVTVQNPGAALDLCIAAVIKECHLVILSLKSQTLDAETDVLCAVLYSNHNRMGRHKPHLALKQVEQCLKRLKNMNLEGSIQDLFELFSSNENQPLTTKVCVVPSQPVVELVLMKVLGACKLLLRLLDCCCKTFLLTVKHLGLQEFIILNLVMVGLVSRLWVLYKGVLKRLILLYEPLFGLLQEVARIQPMPYFKDFTFPSDITEFLGQPYFEAFKKKMPIAFAAKGINKLLNKLFLINEQSPRASEETLLGISKKAKQMKINVQNNVDLGQPVKNKRVFKEESSEFDVRAFCNQLKHKATQETSFDFKCSQSRLKTTKYSSQKVIGTPHAKSFVQRFREAESFTQLSEEIQMAVVWCRSKKLKAQAIFLGNKLLKSNRLKHLEAQGTSLPKKLECIKTSICNHLLRGSGIKTSKHHLRQRRSQNKFLRRQRKPQRKLQSTLLREIQQFSQGTRKSATDTSAKWRLSHCTVHRTDLYPNSKQLLNSGVSMPVIQTKEKMIHENLRGIHENETDSWTVMQINKNSTSGTIKETDDIDDIFALMGV	–	–	–	–	binds
RPP21 (protein, UniProt Q9H633 1-154) MAGPVKDREAFQRLNFLYQAAHCVLAQDPENQALARFYCYTERTIAKRLVLRRDPSVKRTLCRGCSSLLVPGLTCTQRQRRCRGQRWTVQTCLTCQRSQRFLNDPGHLLWGDRPEAQLGSQADSKPLQPLPNTAHSISDRLPEEKMQTQGSSNQ	–	–	–	–	binds
Rmp24 (protein, UniProt Q5XFZ0 1-217) MRQKYYIEAAARGLVGSCPGQARYLLWAYSSTHEDNSTFQETCPHCFQLLVLDNSRVRLKPKAKLTPKIQKLLNREARNDTLSFKEAKLLRKYKDSTSVLLITCRTCNRTVRHHGKSRSFLWALKSNAATAANKASPKTPKRTAPGSANLGQSTNGSKGKSPSLTIRTPTSGQSTPICSSRNGSKRKKHFSQLKALLSQSASDKNPKLDFRHFLSSL	binds	–	binds	no binding	–

Other lines, results leading:

binding (Rmp64-3×Flag)	binding (Rmp24-3×Flag)	binding (Flag-HA-Rpp25 [1])	binding (Rpp21-3×Flag)	binding (Flag-HA-RPP25 [2])	Binder
no binding	no binding	binds	–	–	Rpp21 (protein, UniProt Q8R040 1-150) MAGPVKDREAFQRLSFLYQAAHCVLSQNPENQALARFYCHTEKTIAKRLVLRQDPSVKRTLCRSCSSLLIPGLTCTQRQRRRKGQRWTVQTCLTCQRSQRFLNDPKHLLWGDRPEAQLENQADINPSEPLPNIADLPKENIQTQALNTSE
–	–	–	–	binds	RMP24 (protein, UniProt Q32NC0 1-220) MRQKHYLEAAARGLHDSCPGQARYLLWAYTSSHDDKSTFEETCPYCFQLLVLDNSRVRLKPKARLTPKIQKLLNREARNYTLSFKEAKMVKKFKDSKSVLLITCKTCNRTVKHHGKSRSFVSTLKSNPATPTSKLSLKTPERRTANPNHDMSGSKGKSPASVFRTPTSGQSVSTCSSKNTSKTKKHFSQLKMLLSQNESQKIPKVDFRNFLSSLKGGLLK
